The nature of the experiment: qHTS Assay for Lipid Storage Modulators in Drosophila S3 Cells.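 For cell number change: cells counted by Cell Tracker Red CMTPX staining in the red channel.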 The conditions noted are these: BODIPY lipid droplet fluorescence, 18-24 h; for cell number change: measured here: cell count max response, cells fed with added oleic acid. The method, boiled down:
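Drosophila S3 cells loaded with oleic acid (400 uM, as added) and compounds at several concentrations; lipid droplets imaged by 488-nm laser-scanning cytometry, 500–530 nm intensity and object ratio to cell channel. Percent activity normalized to 20 uM Triacsin C.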
A general note: In qHTS, concentration-response curves come from the screen itself.

The mark [1] stands for this setting: measured here: lipid fluorescence (Fed channel) AC50, cells fed with added oleic acid.
[2] abbreviates: measured here: cell number channel AC50, cells fed with added oleic acid.

As a reminder, the AC50 is the concentration at which the activity in the assay is half-maximal. Low values mean activity at low concentration, high ones activity only at high concentration.

The other results are listed elsewhere or left out. The main result of the screen is listed elsewhere. These columns were measured beside it and carry no call. The list favours compounds with an active or inconclusive main result. The note in brackets gives the kind of curve behind each potency; many fits are weak.

In the case of `Cc1oc(C)c(C(=O)NCCCC(=O)O)c1C(=O)NCCCC(=O)O`, the cell number change amounted to 16%. The half-maximal activity concentration (AC50) under setting [1] is 25.9 µM [rising, single point].
Consider `CCOC(=O)c1c(C)[nH]c(C(=O)OCC(=O)N(C)CC(=O)Nc2ccccc2Cl)c1C`, for which the cell number change is -26%. For the same compound, the AC50 under setting [1] was 13 µM [falling, partial curve, poor fit].
Take `CN(Cc1nc(-c2ccncc2)no1)S(=O)(=O)c1ccc(Cl)cc1`: the cell number change is -14.1%.
For `CCCCC1(Cc2ccc([N+](=O)[O-])cc2)C(=O)N(c2ccccc2)N(c2ccccc2)C1=O`, the cell number change was -17.4%. Further, the AC50 under setting [1] was 7.31 µM [falling, partial curve, poor fit].
Regarding `CCOc1ccc(NC(=O)Nc2nc3ccc(S(C)(=O)=O)cc3s2)cc1`, the AC50 under setting [2] was 0.58 µM [rising, single point] and the half-maximal activity concentration (AC50) under setting [1] was 29.1 µM [falling, single point].
Turning to `C[C@@H](C(=O)NCc1ccc(S(C)(=O)=O)cc1)[C@@H]1C[C@@]1(C)[C@@H](NC(=O)OCc1ccccc1)c1ccccc1`, the cell number change stood at 15.8%. Moreover, under setting [2], the concentration at half-maximal activity (AC50) was 0.58 µM [rising, partial curve, poor fit]. Moreover, under setting [1], the half-maximal activity concentration (AC50) was 0.731 µM [rising, single point].
In the case of `COc1cc(NC(=O)c2onc(C)c2Cl)c(OC)cc1Cl`, the cell number change is -35.2%. Also, under setting [2], the concentration at half-maximal activity (AC50) was 16.4 µM [falling, single point].
Consider `Cc1ncoc1C(=O)N1CCCC(C(=O)c2cccc(OC(C)C)c2)C1` (centres undefined), for which the cell number change is -40.5%. The half-maximal activity concentration (AC50) under setting [2] is 14.6 µM [falling, partial curve]. For the same compound, the AC50 under setting [1] was 18.4 µM [falling, single point].
For the compound `CCN(c1ccccc1)S(=O)(=O)c1ccc(C(=O)Nc2cc(C)ccn2)cc1`, the cell number change is -5.49%. Moreover, under setting [1], the AC50 was 6.51 µM [falling, partial curve].
For `CC(C)NC(=O)C1CCN(C(=O)c2ccc(-c3ccccc3)cc2)CC1`, the cell number change came to 1.28%. Also, the half-maximal activity concentration (AC50) under setting [2] was 0.0731 µM [falling, full curve, poor fit]. For the same compound, under setting [1], the AC50 is 23.1 µM [rising, single point].
`C/C(=N/NS(=O)(=O)c1cc(C)ccc1C)c1c[nH]c2ccccc12`: the cell number change was -7.67%.
`Cc1c(Cl)cccc1NC(=O)c1cc(-c2ccccc2O)n[nH]1`: the cell number change was -3.73%.
In the case of `c1ccc2nc3c(nc2c1)CCc1nonc1-3`, the cell number change was -9.3%. In addition, the AC50 under setting [2] is 0.291 µM [rising, full curve, poor fit]. The concentration at half-maximal activity (AC50) under setting [1] was 29.1 µM [rising, single point].
As to `Cc1cccc(Oc2ccccc2NS(=O)(=O)c2ccc(CCC(=O)O)cc2)c1`, the cell number change is 17.9%. Also, the AC50 under setting [2] was 0.291 µM [rising, full curve, poor fit].
`COc1ccc(CN(CCCN2CCOCC2)C(=O)Nc2ccccc2)cc1OC`: the cell number change is -4.68%.
Take `C[N+]1(CC2COC3(CCCCC3)O2)CCCCC1` (centres undefined): the cell number change is -20.6%. The AC50 under setting [1] was 5.8 µM [falling, full curve].
Take `O=C(COc1ncnc2ccccc12)Nc1cccc([N+](=O)[O-])c1`: the cell number change is -8.8%. Further, the concentration at half-maximal activity (AC50) under setting [1] was 3.66 µM [falling, single point].
Consider `O=C1CCC/C(=N/Nc2ccc(Cl)cc2)C1`, for which the cell number change was determined as 8.91%. For the same compound, the half-maximal activity concentration (AC50) under setting [1] was 0.651 µM [rising, full curve, poor fit].
For `CCOc1ccc(C(=O)NCc2ccccn2)cc1`, the cell number change worked out at 10.8%.
As for `CCOc1ccccc1C(=O)NC(C(=O)Nc1ccccc1N1CCOCC1)C(C)C` (centres undefined), the cell number change is 13.6%. Besides, the AC50 under setting [1] is 2.91 µM [rising, partial curve].
Consider `CC(=O)c1ccc(N2CCN(C(=O)/C=C/c3ccc4ccccc4n3)CC2)cc1`, for which the cell number change is 110%. Also, the half-maximal activity concentration (AC50) under setting [2] was 25.9 µM [rising, single point]. Under setting [1], the half-maximal activity concentration (AC50) is 18.4 µM [rising, partial curve].
Take `Cc1ccc(S(=O)(=O)N2CCOCC2)cc1C(=O)Nc1ccc2c(c1)OCCO2`: the cell number change turned out to be 4.1%. Besides, under setting [1], the AC50 is 0.116 µM [rising, full curve, poor fit].
As to `COc1cc(/C=N/N2CCN(c3ccccc3OC)CC2)ccc1O`, the half-maximal activity concentration (AC50) under setting [1] is 3.66 µM [falling, partial curve].
For `O=C(O)C1CC=CCC1C(=O)Nc1cccc([N+](=O)[O-])c1` (centres undefined), the cell number change was -0.187%. In addition, the concentration at half-maximal activity (AC50) under setting [1] was 1.16 µM [falling, single point].
On to `CC(C)CNC(=O)c1cccc(NC(=O)C2CCCO2)c1` (centres undefined), for which the cell number change was -5%. The AC50 under setting [1] is 0.82 µM [falling, single point].
With `O=c1[nH]c(CN2CCOCC2)nc2ccccc12`, the cell number change was -24.9%. Also, the AC50 under setting [1] is 29.1 µM [falling, single point].
Take `FC(F)Oc1ccc(NC(=S)N2CCN(Cc3ccccc3)CC2)cc1`: the cell number change came out at 5.35%.
Turning to `O=C(NNC(=O)C1CCN(S(=O)(=O)c2c(Cl)cccc2Cl)CC1)c1ccccc1O`, the cell number change was -18%.
Take `CCOC(=O)c1cnc2c(cnn2C)c1NCCCn1ccnc1`: the cell number change was found to be 11.4%.
`CCn1c(SC(C)C(=O)NCC2CCCO2)nc2ccccc21` (centres undefined): the cell number change is -2.08%. Also, the concentration at half-maximal activity (AC50) under setting [1] is 29.1 µM [rising, single point].
On to `COc1ccc(-c2nc(SCC(=O)NCc3ccco3)c(-c3ccccc3)[nH]2)cc1OC`, for which the cell number change came out at 49.7%. Moreover, the AC50 under setting [2] was 1.46 µM [rising, partial curve]. In addition, the AC50 under setting [1] is 3.26 µM [rising, partial curve].
Regarding `CCCCNC(=O)c1ccc2c(c1)N(C)C(=O)c1ccccc1S2`, the cell number change worked out at 29.8%.
For the compound `CC1(C)NC(=O)N(CC(O)CN2CCOCC2)C1=O` (centres undefined), the cell number change was -24.8%. Moreover, under setting [2], the AC50 was 0.58 µM [falling, full curve, poor fit]. The AC50 under setting [1] was 29.1 µM [falling, single point].
Consider `CCOC(=O)c1[nH]c(C)c(/C(O)=C2\C(=O)C(=O)N(CCN3CCOCC3)C2c2ccco2)c1C` (centres undefined), for which the cell number change worked out at 121%.
Take `Cc1nn(-c2cccc(Cl)c2)c(Cl)c1/C=N/NC(=O)c1cccs1`: the cell number change is -51.5%. For the same compound, the AC50 under setting [2] is 5.17 µM [falling, partial curve]. Besides, the AC50 under setting [1] was 5.8 µM [falling, partial curve].
Regarding `COc1cccc(N2CCN(CC(=O)Nc3nnc(-c4ccccc4)s3)CC2)c1`, the cell number change was -19.1%.
For `O=C(Cc1ccccc1)NC(=S)Nc1ccc(OC(F)F)cc1`, the cell number change is -9.12%. Besides, the AC50 under setting [1] is 4.11 µM [rising, partial curve, poor fit].
On to `COC(=O)C1=C(C)NC(=O)NC1c1ccc(-c2ccc(F)cc2)o1` (centres undefined), for which the cell number change is -11.5%. Moreover, under setting [1], the AC50 was 0.58 µM [falling, single point].
As for `O=C(C1CCCO1)N1CCN(C(=S)Nc2ccc(Br)cc2)CC1` (centres undefined), the cell number change was 3.81%.
As to `O=S(=O)(c1ccc(OCC(O)CN2CCN(c3ccccc3Cl)CC2)cc1)N1CCOCC1` (centres undefined), the cell number change is -0.722%.
With `CC1=C(C(=O)OCc2ccccc2)C(c2cccnc2)n2nnnc2N1` (centres undefined), the cell number change is -23.9%. For the same compound, under setting [1], the AC50 was 29.1 µM [falling, single point].
On to `CCOc1ccc(C2C(C#N)=C(N)Oc3cc(C)n(CCN(C)C)c(=O)c32)cc1OCC` (centres undefined), for which the cell number change was 26.8%. Under setting [1], the concentration at half-maximal activity (AC50) was 6.51 µM [falling, single point].
For the compound `CCOC(=O)N1CCN(C(=O)c2cn(C)c3ccc(S(=O)(=O)N(C)C4CCCCC4)cc3c2=O)CC1`, the cell number change was -15%. The half-maximal activity concentration (AC50) under setting [1] was 25.9 µM [rising, single point].
As to `CC(NC(=O)c1cccnc1)C(c1cccs1)N1CCN(c2ccccc2F)CC1` (centres undefined), the cell number change is -7.98%. Also, under setting [1], the concentration at half-maximal activity (AC50) is 3.26 µM [falling, full curve].
As for `COc1ccc(C(=O)O)cc1F`, the cell number change turned out to be 2.7%. Besides, the AC50 under setting [1] is 6.51 µM [falling, single point].
In the case of `CC(=O)c1c(C)[nH]c(C(=O)CN2C(=O)NC3(CCCCC3C)C2=O)c1C` (centres undefined), the cell number change came out at 57.5%. Further, the concentration at half-maximal activity (AC50) under setting [2] was 18.4 µM [rising, single point].
Take `Cc1cccc(C)c1N1CCN(C(=O)c2ccc3c(c2)OCO3)CC1`: the cell number change was -22%. Besides, the concentration at half-maximal activity (AC50) under setting [1] was 2.91 µM [rising, single point].
As for `OC(c1cc(-c2ccc(C(F)(F)F)cc2)nc(C(F)(F)F)c1)C1CCCCN1` (centres undefined), the cell number change is -101%. Also, the AC50 under setting [2] was 13 µM [falling, partial curve]. Moreover, the half-maximal activity concentration (AC50) under setting [1] is 11.6 µM [falling, partial curve].
Turning to `CSc1nnnn1CCn1nnnc1SC`, the cell number change amounted to 18.4%.
On to `O=C(COc1ccccc1)N=C1SC2CS(=O)(=O)CC2N1CCc1ccccc1` (centres undefined), for which the cell number change was -6.73%. For the same compound, the half-maximal activity concentration (AC50) under setting [1] was 0.58 µM [rising, single point].
For the compound `COc1cccc(-n2cc(CNCc3cn(C)nc3-c3ccccc3F)cn2)c1`, the cell number change was -26.7%. For the same compound, the half-maximal activity concentration (AC50) under setting [1] was 20.6 µM [falling, single point].
For `CC(=O)c1cccc(NC(=O)c2cc(C(C)C)on2)c1`, the cell number change came to 26.3%. The AC50 under setting [1] was 6.51 µM [rising, single point].
Consider `CC(=O)Nc1ccc(C(=O)CSc2nnc(-c3ccc(O)cc3)n2CC2CCCO2)cc1` (centres undefined), for which the cell number change is -10.3%.
`Cc1ccc(Oc2nc3ccccc3n3c(C)nnc23)c(C)c1`: the AC50 is 1.16 µM [rising, full curve] under setting [2] and 1.3 µM [rising, full curve] under setting [1].
On to `Cc1nnc(SCC(=O)NC2CCCCCC2)n1C`, for which the cell number change was -10.8%. Also, the AC50 under setting [1] is 4.11 µM [rising, single point].
`CC(C)(C)Nc1nc(SCc2ccccc2)nc(N2CCOCC2)n1`: the cell number change was -25.2%. Moreover, the concentration at half-maximal activity (AC50) under setting [1] is 5.17 µM [rising, partial curve].
For `COc1cc(-c2cc(=O)c3c(O)c(OC)c(OC)cc3o2)cc(OC)c1O`, the cell number change is -42.4%. In addition, the AC50 under setting [2] is 29.1 µM [falling, single point]. Besides, under setting [1], the concentration at half-maximal activity (AC50) is 29.1 µM [falling, single point].
Regarding `O=C(O)c1ccccc1OCc1nc2ccccc2s1`, the cell number change is -21.1%.
For the compound `CCOc1cccc(/C=N/NC(=S)Nc2cc(S(=O)(=O)N3CCOCC3)ccc2N2CCOCC2)c1O`, the cell number change is -40.8%. In addition, under setting [2], the AC50 is 32.6 µM [falling, single point]. Also, under setting [1], the half-maximal activity concentration (AC50) was 10.3 µM [falling, partial curve].
For the compound `COC(=O)c1ccccc1-n1cccc1C(=O)NP(=O)(N1CCOCC1)N1CCOCC1`, the cell number change was -17.4%. Moreover, the concentration at half-maximal activity (AC50) under setting [1] was 32.6 µM [falling, single point].
Regarding `O=C1CC(C2CCCO2)C(=O)N1c1cccc(Cl)c1` (centres undefined), the cell number change is 15.6%. Moreover, the concentration at half-maximal activity (AC50) under setting [1] was 6.51 µM [falling, single point].
Turning to `Cc1oc(-c2ccccc2F)nc1CSCC(=O)NC1CC1`, the cell number change was found to be 88.2%. Besides, the AC50 under setting [2] was 16.4 µM [rising, single point]. For the same compound, the AC50 under setting [1] is 29.1 µM [rising, single point].

(Values after PubChem BioAssay AID2685 (National Center for Advancing Translational Sciences (NCATS), 2010).)
